# Results of single-concentration screens

Chains of the proteins cited; added tags and fusions are not shown. Residues count along the entry.
UniProt Q4DA54, 1-478: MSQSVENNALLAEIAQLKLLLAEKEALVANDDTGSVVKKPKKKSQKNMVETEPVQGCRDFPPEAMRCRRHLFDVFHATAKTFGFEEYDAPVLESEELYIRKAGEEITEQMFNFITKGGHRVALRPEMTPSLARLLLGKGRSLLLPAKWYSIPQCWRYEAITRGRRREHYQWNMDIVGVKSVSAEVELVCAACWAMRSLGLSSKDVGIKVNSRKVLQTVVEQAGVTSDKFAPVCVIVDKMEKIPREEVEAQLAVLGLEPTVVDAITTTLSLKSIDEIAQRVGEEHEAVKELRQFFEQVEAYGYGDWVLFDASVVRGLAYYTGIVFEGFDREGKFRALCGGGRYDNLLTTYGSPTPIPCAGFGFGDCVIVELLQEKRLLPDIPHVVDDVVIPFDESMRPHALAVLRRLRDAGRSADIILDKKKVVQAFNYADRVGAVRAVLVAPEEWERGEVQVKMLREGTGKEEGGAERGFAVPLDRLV

The values are deposited in ChEMBL (CHEMBL3988442, “University of Dundee, Small-Polar-MMV Screening Library” (2021)).

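Enzyme assay of histidyl-tRNA synthetase; the read-out is not stated. Target: Histidine-tRNA ligase, Trypanosoma cruzi CL Brener (UniProt Q4DA54). Tested at 30 µM. The record gives no direction; compounds that gave an IC50 in retests scored well above the rest, so higher reads as stronger inhibition. About 69,000 compounds were tested under these conditions; 0.045% (about 31) showed 50% or more at least once.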

Results are given as percent effect. The record does not define 0% and 100%; most values in the screen are far below 50% and negative numbers occur (in some assays of this library far below -100). This is an unselected part of the compounds tested.

Compound | effect
O=C([C@H]1C[C@H]2OCC[C@H]2N(Cc2ccc(F)cc2)C1)N1CCCCO1 | 11.76
Cc1cncc(C2CCCN(C(=O)c3cnco3)C2)n1 (stereo not shown) | 8.791
CN(C)C(=O)Cn1cc(C(=O)NCCc2ccc(Cl)cc2Cl)nn1 | 5.263
CC(C)n1cnc2c1C(C(=O)NCCO)N(Cc1ccccc1)CC2 (stereo not shown) | 0
Cc1c(C(=O)N2CCCSCC2)nnn1-c1ccccc1Cl | 9.639
CCn1[nH]c(C)c2c(C(F)(F)C(F)(F)F)cc(=O)nc1-2 | 3.704
CC(C)C1CN(C(=O)c2ccccc2)CCS1 (stereo not shown) | 0.5952
CCOC(=O)Cn1cnc2nc3n(c2c1=O)CCC3 | 7.937
Cc1nn(C)c(C)c1CNCc1ccnc(N2CCOCC2)c1 | 7.143
CC(=O)N1CCC12CCN(Cc1ccco1)CC2 | -0.9709
CN1CCC(N2CCOC[C@H]2c2nc(C(C)(C)C)c[nH]2)CC1 | 4.348
Cc1n[nH]c(C)c1-c1c(C#N)c(N)nc2c1CCc1[nH]ccc1-2 | 2.703
CSCCNc1ccc(C(=O)N(C)Cc2ccc3ccccc3n2)cn1 | 4.741
COc1ccc(NC(=O)C2CCCO2)cc1OCc1cccnc1 (stereo not shown) | 21.39
CN(C)CCN(Cc1ccc(F)cc1)C(=O)c1ccn(C)c(=O)c1 | 2.679
COc1cccc(C2CCN2C(=O)c2cnccn2)c1 (stereo not shown) | 4.891
CC(C)c1nccn1CCC(=O)N1CCCCC1c1ccn[nH]1 (stereo not shown) | 0.3831
CCCc1nc(N2CC[C@@H](c3ccc4c(c3)OCO4)[C@H](O)C2)no1 | 2.632
Cc1cc(C(=O)NCC(O)c2ccc(Cl)s2)c(C)o1 (stereo not shown) | 5.882
N#Cc1ccc(N2CCCC2Cn2cncn2)nc1 (stereo not shown) | -1.064
O=C(COc1coc(CN2CCCCCC2)cc1=O)c1ccccc1 | 6.522
CCc1nc(C2CCCN2Cc2nnc(CC)o2)no1 (stereo not shown) | -2.521
CC(C)c1ccc2c(c1)CCCN2C(=O)CN(C)S(C)(=O)=O | 4.294
CCCc1n[nH]c(=O)n1[C@@H](CC)c1ccccc1 | 5.941
CC(=O)N1CCCC(c2ccc(Br)cn2)C1 (stereo not shown) | 9.738
c1cncc(N2CCCn3nnc(COCC4CC4)c3C2)c1 | 2.793
CN(C)C(=O)c1csc(-c2ccoc2)n1 | 9.524
CCc1n[nH]c(C2CN(Cc3nc(C4CC4)no3)CCO2)n1 (stereo not shown) | 0
Cc1cc(CN2CC[C@@H]3O[C@@H](c4nnc(C)o4)C[C@H]3C2)no1 | 6.63
CN(C)[C@@H]1CN(Cc2ccco2)C[C@@H]2CCCO[C@@H]21 | 8.197
CNC(=O)[C@@]12CCO[C@@H]1CCN(S(=O)(=O)c1cccnc1)C2 | 3.867
CCOC(=O)NCCNC(=O)c1cc2ccccc2nc1N1CCCC1 | 13.33
O=C1CCCN1Cc1nc(-c2ccsc2)no1 | 0
O=C(Nc1cccc(CN2CCOC2=O)c1)N1CCCCCC1 | 2.232
O=C(c1ccc2c(c1)COC2)N1CCN(CCO)CC1 | 2.286
CNC(=O)N1CC[C@@H]2CN(CCc3cccc(OC)c3)S(=O)(=O)[C@@H]2CC1 | 7.527
CC(=O)NC(C(=O)N1CCn2cncc2C1)C(C)C (stereo not shown) | 8.671
O=C(CCc1ccc(Cl)s1)N1CCCC(N2CCNC2=O)C1 (stereo not shown) | 3.659
Cn1c(CN2CCCCCC2)cc(=O)c(O)c1CN1CCCC1 | 9
CN(Cc1cccnc1)c1nc(-c2ccccn2)nc2c1CCNCC2 | 3.96
CCOCC(O)CN1CCN(C(=O)c2ccnc(N(C)C)c2)CC1 (stereo not shown) | -2.5
CCOCC(=O)N1C[C@H]2CC[C@@H]1CN(C(=O)c1ccncc1)C2 | 7.955
CCc1cc(C(=O)N2CCC(C3CCN(c4ncccn4)CC3)C2)on1 (stereo not shown) | 1.235
Cc1cc(CN2CCC(c3nccn3C(C)C)CC2)ccc1F | 3.139
COCC1CN(C(=O)Cc2cccc(F)c2)Cc2ccnn2C1 (stereo not shown) | 5.911
Cn1ccnc1CN1CCN2C[C@H](Oc3ccccc3)C[C@H]2C1 | 7.843
CN1CCC(c2ncc3c(n2)CCN(C(=O)CC2C=CCC2)C3)CC1 (stereo not shown) | 22.58
N#Cc1ccc(C2CC(=O)Nc3c2cnn3C2CCCC2)cc1 (stereo not shown) | -1.245
COc1cccc(CN2CCOC(Cn3nc(C)cc3C)C2)c1 (stereo not shown) | 8.021
CCOc1cc([C@H]2N[C@@H](c3nc(C)cs3)Cc3ccsc32)ccc1OC | 12.12
Cc1nccc(CNC(=O)NCCC(=O)N2CCCc3ccccc32)n1 | 7.182
NC(=O)C1(c2cnccn2)CCCN1Cc1ccc(F)c(F)c1 (stereo not shown) | 7.447
Cc1noc(C)c1S(=O)(=O)N1CCC(n2cccn2)CC1 | 4.972
Cc1csc(C2CCCCN2C(=O)c2cnn3ccc(C)nc23)n1 (stereo not shown) | 2.041
CCC(CO)N(Cc1ccsc1)Cc1ccccc1C(=O)O (stereo not shown) | 0.5405
COc1ccc(-n2cc(CNC(=O)c3ccc[nH]3)nn2)cc1 | 12.5
CCS(=O)(=O)N1CCC(c2nnc(CN3CCCCC3)n2C)CC1 | 3.261
CCN1Cc2cc(F)ccc2N(C(=O)C2CCC2)CCC1=O | 6.742
Cc1cccc(CNC(Cc2ccsc2)c2nccs2)n1 (stereo not shown) | 9.398
Cc1noc(C)c1CN1CCn2nc(CCC(=O)N3CCCC3)cc2C1 | 4.036
CC(=O)N1CCC2(CCN(CC(C)C)C2)C1 (stereo not shown) | 1.942
Cc1nonc1C(=O)N1CCc2c(ncn2CCc2ccccc2)C1 | 2.89
COc1ccc(-c2n[nH]c(C)c2CC(=O)NCC2CCOCC2)cc1 | 1.98
COCc1noc(-c2ccc(N(C)Cc3cn(C)nc3C)nc2)n1 | 8.543
CN(C)S(=O)(=O)N1CCN(c2nccc(C(F)(F)F)n2)CC1 | 0.8264
CC1c2ncc(COCC3CC3)n2CCN1C(=O)c1ccnnc1 (stereo not shown) | 10.74
O=S(=O)(C1CC1)N1CCC2(CCCN(c3ncc(F)cn3)C2)C1 (stereo not shown) | 5.747
CC(C)(C)Oc1ccncc1NCc1cscn1 | 6.818
c1cncc(CN2CCc3c(CNc4nccs4)n[nH]c3C2)c1 | 0
CN(C)C(=O)CNC(=O)c1ccn(-c2ccc3ccccn23)n1 | 2.479
c1ccc(OCCN2CCCC(c3noc(C4CC4)n3)C2)cc1 (stereo not shown) | 0.4149
COc1cc(N2CC[C@@H]3OCCN(C)[C@H]3CC2)ncn1 | 6.63
CC1CN(C)CCN1C(=O)c1ccc(-n2cnnc2)cc1 (stereo not shown) | 3.704
Cc1nnc([C@]23COC[C@H]2CN(Cc2cnn(C)c2)C3)o1 | 7.362
Cn1cc(CNC2CC3(CCN(S(C)(=O)=O)CC3)c3ccccc32)cn1 (stereo not shown) | 2.513
COc1ccc2cc(NC(=O)CCCNc3ncccn3)cnc2c1 | 6.433
N#Cc1ccnc(N2CCN(CC(O)c3ccc(F)cc3)CC2)c1 (stereo not shown) | 6.349
CC(=O)NCCNC(=O)c1cnc(C(C)(C)C)s1 | 4.046
CCCN1CCN(Cc2nccn2CC)C(C)C1 (stereo not shown) | 8.021
COc1ccc(-c2cccc(-c3ccn(CCN(C)C)n3)c2)nn1 | 0.9662
Cc1cnn(CC(C)NCc2nc(-c3cccnc3)no2)c1 (stereo not shown) | 10.57
CC(NC(=O)Cn1cccnc1=O)c1ccc(C(F)(F)F)cc1 (stereo not shown) | -5.202
Cc1cc(C(=O)N(CC(C)C)CC(O)c2ccc(F)cc2)[nH]n1 (stereo not shown) | 3.867
COC(=O)CCNC(=O)c1nc(NS(=O)(=O)c2ccccc2)sc1C | 2.591
COc1cccc2ccc(CN3CCN(c4cccnc4)CC3)nc12 | 19.05

8 of the entries, repeated:

Compound,effect
CCOC(=O)Cn1cnc2nc3n(c2c1=O)CCC3,7.937
Cc1c(C(=O)N2CCCSCC2)nnn1-c1ccccc1Cl,9.639
CC1c2ncc(COCC3CC3)n2CCN1C(=O)c1ccnnc1 (stereo not shown),10.74
O=C(c1ccc2c(c1)COC2)N1CCN(CCO)CC1,2.286
Cc1nccc(CNC(=O)NCCC(=O)N2CCCc3ccccc32)n1,7.182
O=C1CCCN1Cc1nc(-c2ccsc2)no1,0
CN(C)C(=O)c1csc(-c2ccoc2)n1,9.524
Cn1c(CN2CCCCCC2)cc(=O)c(O)c1CN1CCCC1,9